Measured values reported in patent US12527774B2, “Estrogen-related receptor alpha modulators” (LEAD PHARMA HOLDING B.V., priority 2019, dated 2026).
The match of structure and compound is tentative.

Tested on: B16F10 melanoma
Assay: B16F10 Melanoma Syngeneic Mouse Model
Settings: 30 mpk p.o., q.d., C57BL/6 mice; for Tumor Growth Inhibition (%): Day 13
Description: B16F10 Melanoma Syngeneic Mouse Model
Examples inhibitors 100, 191, 192, 194 and 196 were tested for their ability to inhibit tumor growth in a B16F10 melanoma syngeneic mouse model.
Cell line and tumor model: B16F10 melanoma cell line derived allograft model in C57BL/6 mice.
Mouse B16F10 melanoma cells were sourced from American Type Culture Collection (ATCC), USA. Cells were grown in DMEM (Invitrogen, Catalogue No. 31600-034) supplemented with 10% FBS (Invitrogen, Catalogue No. 10438-026), and 1% penicillin streptomycin (Thermo Fisher Scientific, Catalogue No. 15140-122). To establish allografts, the cells were harvested by trypsinization when they reach around 70 to 80% confluence and 0.1 million B16F10 cells were suspended in 50 μl of serum free medium and mixed at 1:1 ratio with matrigel before implanting subcutaneously into the dorsal right flank of mice using a 1 mL BD syringe attached to a 24-gauge needle.
B16F10 tumor grafts were measured after 5 days of cell inoculation once they became palpable. When the average tumor volume reached around 58 mm^3, animals were dosed after randomization into different treatment groups keeping tumor volume and number of animals in such a way so that the average tumor volume of each group remained same across the groups. Dosing was performed on a per kilogram weight basis, by mouth (per os, p.o.) once a day (quaque die, q.d).
Tumor dimensions—length (I) and breadth (b)—were measured by caliper on the day of animal randomization based on tumor volume (Day 1) and thrice weekly thereafter until study termination. Tumor volumes were calculated using the formula b^2*I*0.52 where l=length, b=breadth (Dusan Djokovic et al., BMC Cancer, 2010, 10:641). Tumor growth inhibition was calculated after normalizing the tumor volume on a given day to that on Day 1.
Test items administration was started when tumor volume reached an average of 58 mm^3.
Administration of test items was carried out until Day 14 and measurement of tumor volume was carried out until Day 13 for computing percent tumor growth inhibition (TGI).

SMILES	Tumor Volume (mm^3) Day 13	Tumor Growth Inhibition (%)
COc1cc([C@H]2CC(=O)Nc3n[nH]cc32)ccc1COc1ccc(C(F)(F)F)cc1C(F)(F)F	552 ± 91 mm^3	72%
COc1cc([C@@H]2CC(=O)Nc3n[nH]cc32)ccc1COc1ccc(C(F)(F)F)cc1C(F)(F)F	518 ± 62 mm^3	74%
